Test results: US11065294B2, “Composition including oriental medicine to treat neoplastic disease” (COMPREHENSIVE AND INTEGRATIVE MEDICINE INSTITUTE, priority 2013, dated 2021)
Several values for one entry are separate records, joined by “and”; a condition that tells them apart may be missing. Identical values can stand only once. Counter-ions that a name gives are not always drawn.

Test system: MCF-7 cells
Experiment: MCF-7 cell viability (cytotoxicity)
Type: cell-based
Conditions: Homo sapiens, MCF7

**Q.** With `CC/C(=C(\c1ccccc1)c1ccc(OCCN(C)C)cc1)c1ccccc1` [Tamoxifen, Tamoxifen citrate] as the molecule, how does the IC50 read?
**A.** 1.88 µM and 0.69 µg/mL
